## Results from one PubChem assay

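Malaria parasite (P. falciparum) lines kept in red blood cells; parasite DNA is measured by SYBR Green fluorescence after lysis, 72 h after compound addition. Each compound was titrated across a series from about 0.000037 to 29 µM. The number is the fitted AC50, the concentration giving a half-maximal change in signal; a lower value means higher potency, whether the curve shows a decrease or an increase. Calls follow the curve class and fit quality: every row here is inconclusive, covering signal-raising curves and weak, poorly fitted, partial or highest-dose-only inhibition curves.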

Values are in µM. All entries here are filed as inconclusive. These entries are mostly ones the record files as inconclusive; other results of the assay are not listed here. Potencies fitted to partial, single-point or poorly fitting curves are rough.

CN1CCC(=C2c3ccccc3CCc3sccc32)CC1 [DFO2036] gave fitted potency 11.22 µM (inhibitor, partial curve). CN1CCC(=C2c3ccccc3CCc3sccc32)CC1 [CP192] read fitted potency 21.33 µM (inhibitor, single point). With CN1CCC(=C2c3ccccc3CCc3sccc32)CC1 [JCK] the assay gave fitted potency 10 µM (inhibitor, single point). Result for CN1CCC(=C2c3ccccc3CCc3sccc32)CC1 [CP260] was fitted potency 10 µM (inhibitor, partial curve, poor fit).

With CN1CCC(=C2c3ccccc3CCc3sccc32)CC1 [CP286] the assay gave fitted potency 3.981 µM (inhibitor, partial curve). CN1CCC(=C2c3ccccc3CCc3sccc32)CC1 [CP305] read fitted potency 6.746 µM (inhibitor, partial curve). With CN1CCC(=C2c3ccccc3CCc3sccc32)CC1 [CP291] the assay gave fitted potency 12 µM (inhibitor, partial curve, poor fit). CN1CCC(=C2c3ccccc3CCc3sccc32)CC1 [CP256] read fitted potency 7.08 µM (inhibitor, partial curve).

CN1CCC(=C2c3ccccc3CCc3sccc32)CC1 [CP191] read fitted potency 10 µM (inhibitor, single point). For CN1CCC(=C2c3ccccc3CCc3sccc32)CC1 [CP252] the result was fitted potency 11.22 µM (inhibitor, partial curve). CN1CCC(=C2c3ccccc3CCc3sccc32)CC1 [DIV30] read fitted potency 4.776 µM (inhibitor, partial curve). For CN1CCC(=C2c3ccccc3CCc3sccc32)CC1 [N140] the result was fitted potency 5.012 µM (inhibitor, partial curve).

Result for CN1CCC(=C2c3ccccc3CCc3sccc32)CC1 [P94_40] was fitted potency 12.59 µM (inhibitor, partial curve). CN1CCC(=C2c3ccccc3CCc3sccc32)CC1 [CP265] gave fitted potency 8.912 µM (inhibitor, partial curve). CN1CCC(=C2c3ccccc3CCc3sccc32)CC1 [HB3] read fitted potency 10 µM (inhibitor, single point). CN1CCC(=C2c3ccccc3CCc3sccc32)CC1 [ATS189] read fitted potency 3.981 µM (inhibitor, partial curve).

CN1CCC(=C2c3ccccc3CCc3sccc32)CC1 [CP185] read fitted potency 5.623 µM (inhibitor, partial curve). CN1CCC(=C2c3ccccc3CCc3sccc32)CC1 [CP238] gave fitted potency 6.31 µM (inhibitor, partial curve). CN1CCC(=C2c3ccccc3CCc3sccc32)CC1 [CP268] gave fitted potency 8.492 µM (inhibitor, partial curve). Result for CN1CCC(=C2c3ccccc3CCc3sccc32)CC1 [CP217] was fitted potency 6.31 µM (inhibitor, partial curve).

For CN1CCC(=C2c3ccccc3CCc3sccc32)CC1 [CP266] the result was fitted potency 12 µM (inhibitor, single point). CN1CCC(=C2c3ccccc3CCc3sccc32)CC1 [TAB113] gave fitted potency 8.912 µM (inhibitor, partial curve). For CN1CCC(=C2c3ccccc3CCc3sccc32)CC1 [PC26] the result was fitted potency 8.492 µM (inhibitor, partial curve). Result for CN1CCC(=C2c3ccccc3CCc3sccc32)CC1 [CP211] was fitted potency 13.46 µM (inhibitor, single point).

Repeated from the top, 2 entries:

For CN1CCC(=C2c3ccccc3CCc3sccc32)CC1 [DFO2036] the result was fitted potency 11.22 µM (inhibitor, partial curve).
For CN1CCC(=C2c3ccccc3CCc3sccc32)CC1 [CP192] the result was fitted potency 21.33 µM (inhibitor, single point).

Data taken from PubChem BioAssay AID504749, deposited by NCATS (2011).